This is one part of the list.
The targets below were run with c1cn2cc(-c3ccc4cn[nH]c4c3)nc(Nc3ccc(N4CCOCC4)cc3)c2n1 [entospletinib] (assay: log2 fold change, soluble protein after heating vs DMSO (PISA); higher = thermal stabilisation; K562 cells, 10 uM, 30 min; active = over 0.2 and 3.5 SD of the protein, either way, in both replicates (recomputed)).
Summary of the method: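 Aliquots of K562 cells (2×10^6 cells/mL) treated with 10 μM compound for 30 min were heated for 3 min over 48°C-58°C. After pooling and extraction in PBS with 0.5% NP-40 at 4°C, soluble protein from a 21,000xg, 90 min spin was quantified by TMTpro 16plex LC-MS/MS with channel sums equalised. Thermal stability is expressed against control samples, from duplicates, as a log2 fold change.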

Sequences of proteins named here, by UniProt entry; tags and fusion partners are left off. A change or cut given only in a name is not applied to a line headed by its entry.
UniProt P78527, whole entry, looked up: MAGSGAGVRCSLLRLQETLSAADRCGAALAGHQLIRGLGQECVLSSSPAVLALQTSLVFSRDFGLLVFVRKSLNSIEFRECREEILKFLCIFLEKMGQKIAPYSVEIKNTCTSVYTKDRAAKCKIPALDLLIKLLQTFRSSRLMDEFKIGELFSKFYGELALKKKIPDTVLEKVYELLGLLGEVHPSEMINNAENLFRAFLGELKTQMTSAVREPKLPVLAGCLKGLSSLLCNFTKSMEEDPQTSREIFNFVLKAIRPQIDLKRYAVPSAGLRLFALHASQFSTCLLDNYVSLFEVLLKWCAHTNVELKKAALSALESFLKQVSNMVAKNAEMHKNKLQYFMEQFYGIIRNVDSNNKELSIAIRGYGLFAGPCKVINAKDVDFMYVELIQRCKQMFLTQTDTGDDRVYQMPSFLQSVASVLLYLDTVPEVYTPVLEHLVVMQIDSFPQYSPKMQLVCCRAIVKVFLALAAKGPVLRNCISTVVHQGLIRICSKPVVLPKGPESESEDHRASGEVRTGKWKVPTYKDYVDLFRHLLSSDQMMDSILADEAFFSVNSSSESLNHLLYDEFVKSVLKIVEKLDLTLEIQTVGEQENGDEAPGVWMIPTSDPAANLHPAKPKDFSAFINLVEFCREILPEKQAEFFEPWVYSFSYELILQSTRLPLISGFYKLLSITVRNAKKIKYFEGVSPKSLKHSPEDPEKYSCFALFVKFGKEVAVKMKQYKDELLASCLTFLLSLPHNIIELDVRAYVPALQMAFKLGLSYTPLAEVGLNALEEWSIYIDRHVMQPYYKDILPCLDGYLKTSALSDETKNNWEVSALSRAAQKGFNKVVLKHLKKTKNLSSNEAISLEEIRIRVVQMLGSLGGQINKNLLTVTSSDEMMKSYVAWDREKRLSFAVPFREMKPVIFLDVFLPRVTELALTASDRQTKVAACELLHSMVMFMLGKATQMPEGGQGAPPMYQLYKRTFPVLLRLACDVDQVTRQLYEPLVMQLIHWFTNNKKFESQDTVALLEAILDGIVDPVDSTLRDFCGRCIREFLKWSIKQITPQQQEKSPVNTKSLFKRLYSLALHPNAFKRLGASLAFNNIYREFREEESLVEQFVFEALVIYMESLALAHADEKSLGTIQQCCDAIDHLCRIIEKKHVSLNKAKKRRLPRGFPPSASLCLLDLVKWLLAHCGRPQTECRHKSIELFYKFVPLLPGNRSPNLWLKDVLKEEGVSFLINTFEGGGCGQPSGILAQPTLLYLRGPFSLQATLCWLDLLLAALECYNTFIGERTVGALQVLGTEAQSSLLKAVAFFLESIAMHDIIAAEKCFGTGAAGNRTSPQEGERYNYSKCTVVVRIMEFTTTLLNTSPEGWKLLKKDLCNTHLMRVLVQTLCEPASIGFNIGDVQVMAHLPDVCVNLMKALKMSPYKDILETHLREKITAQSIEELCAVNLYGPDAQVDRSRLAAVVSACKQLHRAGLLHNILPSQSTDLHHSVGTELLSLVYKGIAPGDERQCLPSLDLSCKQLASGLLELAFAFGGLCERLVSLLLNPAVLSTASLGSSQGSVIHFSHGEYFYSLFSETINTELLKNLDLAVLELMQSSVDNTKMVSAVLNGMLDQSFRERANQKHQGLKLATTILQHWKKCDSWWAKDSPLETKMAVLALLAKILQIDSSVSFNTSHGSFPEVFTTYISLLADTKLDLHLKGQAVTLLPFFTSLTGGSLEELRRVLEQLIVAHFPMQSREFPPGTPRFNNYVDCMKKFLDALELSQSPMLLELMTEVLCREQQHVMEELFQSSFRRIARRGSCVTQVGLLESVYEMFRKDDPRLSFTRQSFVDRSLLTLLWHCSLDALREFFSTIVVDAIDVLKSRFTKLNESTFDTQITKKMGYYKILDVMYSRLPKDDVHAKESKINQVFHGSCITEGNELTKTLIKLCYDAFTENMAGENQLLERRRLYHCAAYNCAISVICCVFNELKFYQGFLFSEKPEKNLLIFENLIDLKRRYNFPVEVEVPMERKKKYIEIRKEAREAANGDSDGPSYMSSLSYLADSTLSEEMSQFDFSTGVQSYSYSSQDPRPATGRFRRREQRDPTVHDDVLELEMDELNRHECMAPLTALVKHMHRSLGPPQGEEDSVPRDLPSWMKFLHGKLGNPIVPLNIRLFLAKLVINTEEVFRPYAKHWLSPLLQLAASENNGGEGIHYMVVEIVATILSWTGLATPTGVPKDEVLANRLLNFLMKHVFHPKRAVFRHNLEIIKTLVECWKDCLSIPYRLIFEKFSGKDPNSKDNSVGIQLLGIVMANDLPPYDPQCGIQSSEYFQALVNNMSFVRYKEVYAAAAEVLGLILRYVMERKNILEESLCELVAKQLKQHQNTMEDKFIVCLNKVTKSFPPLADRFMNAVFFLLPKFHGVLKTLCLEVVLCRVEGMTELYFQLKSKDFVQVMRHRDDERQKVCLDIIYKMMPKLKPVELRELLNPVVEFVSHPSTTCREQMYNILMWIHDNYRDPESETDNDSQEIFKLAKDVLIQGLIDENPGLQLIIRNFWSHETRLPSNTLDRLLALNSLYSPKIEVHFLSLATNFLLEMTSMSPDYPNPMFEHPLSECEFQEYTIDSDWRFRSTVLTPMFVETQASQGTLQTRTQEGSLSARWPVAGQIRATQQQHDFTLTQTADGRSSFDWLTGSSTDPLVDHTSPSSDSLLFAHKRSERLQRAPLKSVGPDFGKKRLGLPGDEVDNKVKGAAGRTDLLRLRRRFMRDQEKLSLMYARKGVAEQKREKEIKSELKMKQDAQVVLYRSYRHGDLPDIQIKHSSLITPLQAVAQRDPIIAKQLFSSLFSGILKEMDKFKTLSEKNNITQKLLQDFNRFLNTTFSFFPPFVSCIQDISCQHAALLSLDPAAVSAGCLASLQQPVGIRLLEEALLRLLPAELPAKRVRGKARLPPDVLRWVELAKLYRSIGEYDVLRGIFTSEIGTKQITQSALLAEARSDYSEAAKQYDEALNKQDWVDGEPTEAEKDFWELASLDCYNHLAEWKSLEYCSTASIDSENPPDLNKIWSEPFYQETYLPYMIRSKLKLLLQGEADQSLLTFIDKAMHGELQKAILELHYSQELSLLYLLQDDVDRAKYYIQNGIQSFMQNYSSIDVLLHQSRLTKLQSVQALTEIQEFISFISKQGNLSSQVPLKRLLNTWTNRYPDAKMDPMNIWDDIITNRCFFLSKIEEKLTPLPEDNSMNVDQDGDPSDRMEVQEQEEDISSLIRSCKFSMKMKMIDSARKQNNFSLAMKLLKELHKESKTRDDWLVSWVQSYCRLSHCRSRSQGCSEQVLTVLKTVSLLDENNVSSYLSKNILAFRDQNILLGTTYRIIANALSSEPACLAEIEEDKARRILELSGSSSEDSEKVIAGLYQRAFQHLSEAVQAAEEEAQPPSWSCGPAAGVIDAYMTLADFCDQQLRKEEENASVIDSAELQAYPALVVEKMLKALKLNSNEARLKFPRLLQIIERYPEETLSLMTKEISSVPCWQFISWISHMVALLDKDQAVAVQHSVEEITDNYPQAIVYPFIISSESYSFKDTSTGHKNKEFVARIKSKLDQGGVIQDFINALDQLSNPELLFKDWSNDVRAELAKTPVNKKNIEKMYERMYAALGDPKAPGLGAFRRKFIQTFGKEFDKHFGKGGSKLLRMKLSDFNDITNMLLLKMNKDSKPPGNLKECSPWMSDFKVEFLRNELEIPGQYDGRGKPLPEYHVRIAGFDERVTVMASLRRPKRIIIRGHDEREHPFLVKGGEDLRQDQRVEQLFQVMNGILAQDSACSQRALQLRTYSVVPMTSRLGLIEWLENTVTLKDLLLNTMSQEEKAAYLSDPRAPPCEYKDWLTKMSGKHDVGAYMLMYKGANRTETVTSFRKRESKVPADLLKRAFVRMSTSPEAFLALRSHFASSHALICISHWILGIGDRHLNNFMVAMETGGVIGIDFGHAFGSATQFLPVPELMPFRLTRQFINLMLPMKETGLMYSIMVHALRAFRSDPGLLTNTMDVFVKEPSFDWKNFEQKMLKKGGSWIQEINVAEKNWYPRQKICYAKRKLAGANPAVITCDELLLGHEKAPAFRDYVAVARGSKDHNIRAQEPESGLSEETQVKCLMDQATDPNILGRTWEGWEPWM
UniProt O14744, whole entry, looked up: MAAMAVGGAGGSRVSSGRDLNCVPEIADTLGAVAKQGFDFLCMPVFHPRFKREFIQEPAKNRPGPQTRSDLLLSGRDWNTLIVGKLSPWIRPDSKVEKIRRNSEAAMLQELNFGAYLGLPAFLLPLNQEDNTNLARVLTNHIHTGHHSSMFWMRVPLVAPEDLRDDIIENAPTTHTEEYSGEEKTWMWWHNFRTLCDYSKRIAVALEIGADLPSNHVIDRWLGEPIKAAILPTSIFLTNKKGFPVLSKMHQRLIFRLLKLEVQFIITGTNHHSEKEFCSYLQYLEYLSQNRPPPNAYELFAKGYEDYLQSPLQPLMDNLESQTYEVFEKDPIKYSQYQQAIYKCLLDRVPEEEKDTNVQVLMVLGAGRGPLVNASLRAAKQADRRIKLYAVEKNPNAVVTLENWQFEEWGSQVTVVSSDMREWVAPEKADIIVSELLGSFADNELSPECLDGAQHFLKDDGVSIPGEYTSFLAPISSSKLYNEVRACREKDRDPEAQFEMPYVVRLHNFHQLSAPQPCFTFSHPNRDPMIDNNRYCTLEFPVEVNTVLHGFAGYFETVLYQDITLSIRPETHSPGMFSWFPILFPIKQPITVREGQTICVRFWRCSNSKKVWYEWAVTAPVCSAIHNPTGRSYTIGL
UniProt P13727: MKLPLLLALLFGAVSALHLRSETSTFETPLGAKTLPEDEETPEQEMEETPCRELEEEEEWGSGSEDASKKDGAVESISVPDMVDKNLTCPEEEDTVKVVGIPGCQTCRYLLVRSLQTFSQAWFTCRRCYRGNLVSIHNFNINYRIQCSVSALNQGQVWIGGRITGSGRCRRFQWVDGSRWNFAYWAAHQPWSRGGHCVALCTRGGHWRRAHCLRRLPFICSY
UniProt P36873, whole entry, looked up: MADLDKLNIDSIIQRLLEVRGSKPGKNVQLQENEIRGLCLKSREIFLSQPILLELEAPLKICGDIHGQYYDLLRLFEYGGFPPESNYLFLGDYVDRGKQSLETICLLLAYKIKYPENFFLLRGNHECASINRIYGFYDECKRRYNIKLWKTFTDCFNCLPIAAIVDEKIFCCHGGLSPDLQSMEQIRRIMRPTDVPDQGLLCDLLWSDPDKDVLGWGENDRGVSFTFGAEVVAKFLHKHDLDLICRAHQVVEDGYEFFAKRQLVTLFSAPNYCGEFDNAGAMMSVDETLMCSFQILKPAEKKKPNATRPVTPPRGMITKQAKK
UniProt Q8WUF5: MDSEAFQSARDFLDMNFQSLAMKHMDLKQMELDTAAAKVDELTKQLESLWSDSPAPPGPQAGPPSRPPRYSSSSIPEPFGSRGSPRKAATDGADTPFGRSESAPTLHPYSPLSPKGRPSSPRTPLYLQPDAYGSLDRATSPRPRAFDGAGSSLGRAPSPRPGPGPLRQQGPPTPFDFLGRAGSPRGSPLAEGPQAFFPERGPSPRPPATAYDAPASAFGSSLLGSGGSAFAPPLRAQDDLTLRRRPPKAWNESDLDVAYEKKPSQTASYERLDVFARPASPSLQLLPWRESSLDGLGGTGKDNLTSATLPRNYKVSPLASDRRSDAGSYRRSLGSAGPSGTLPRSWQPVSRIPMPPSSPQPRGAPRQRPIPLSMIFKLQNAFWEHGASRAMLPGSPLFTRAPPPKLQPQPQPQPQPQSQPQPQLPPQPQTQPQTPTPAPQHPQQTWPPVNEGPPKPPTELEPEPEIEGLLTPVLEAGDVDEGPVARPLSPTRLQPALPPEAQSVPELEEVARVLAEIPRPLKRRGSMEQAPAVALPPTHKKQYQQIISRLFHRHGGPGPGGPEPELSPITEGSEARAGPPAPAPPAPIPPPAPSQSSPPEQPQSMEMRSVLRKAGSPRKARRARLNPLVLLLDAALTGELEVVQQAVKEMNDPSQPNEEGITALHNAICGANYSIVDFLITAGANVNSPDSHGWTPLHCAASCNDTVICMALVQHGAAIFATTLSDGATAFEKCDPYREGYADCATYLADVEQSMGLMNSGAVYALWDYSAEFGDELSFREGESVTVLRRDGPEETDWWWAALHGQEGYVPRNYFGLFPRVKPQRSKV
UniProt Q14558: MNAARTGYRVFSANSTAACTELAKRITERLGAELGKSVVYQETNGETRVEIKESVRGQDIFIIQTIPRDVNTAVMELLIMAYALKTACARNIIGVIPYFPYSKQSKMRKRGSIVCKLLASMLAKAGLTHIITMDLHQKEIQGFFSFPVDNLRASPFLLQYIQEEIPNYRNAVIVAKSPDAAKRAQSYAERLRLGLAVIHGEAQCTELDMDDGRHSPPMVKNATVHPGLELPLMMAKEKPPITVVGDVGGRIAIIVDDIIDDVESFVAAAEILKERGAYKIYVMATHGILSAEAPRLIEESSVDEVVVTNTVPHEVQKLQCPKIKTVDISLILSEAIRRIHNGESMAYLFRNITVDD

log2 fold change, inactive:
PPP6R2 isoform 5 (UniProt O75170) -0.022
PRKDC (UniProt P78527) -0.045
PPP1R2 (UniProt P41236) 0.036
PRMT5 (UniProt O14744) -0.002
PRRC2C isoform 7 (UniProt Q9Y520) 0.067
PPP2R3C (UniProt Q969Q6) 0.308
PROS1 (UniProt P07225) 0.047
PRDX5 (UniProt P30044) 0.02
PPP5C (UniProt P53041) 0.021
PRG2 (UniProt P13727) -0.062
PPP1CC isoform 2 (UniProt P36873) -0.011
PPP3CB isoform 4 (UniProt P16298) -0.021
PPP1R13L (UniProt Q8WUF5) 0.096
PROSER3, A0A2R8Y8D9 -0.193
PRPH isoform 2 (UniProt P41219) 0.098
PPP2R1A (UniProt P30153) 0.001
PPP1CB (UniProt P62140) -0.02
PRDX1 (UniProt Q06830) 0.02
PPP2CB (UniProt P62714) 0.02
PPP1R8 (UniProt Q12972) -0.033
PRADC1 (UniProt Q9BSG0) 0.251
PQBP1 (UniProt O60828) -0.006
PRPSAP1 isoform 2 (UniProt Q14558) -0.003
PPP1R18 (UniProt Q6NYC8) -0.037
PRPF4 (UniProt O43172) 0.005
PREP (UniProt P48147) 0.069
PPM1F (UniProt P49593) 0.004
PPP2R2A isoform 2 (UniProt P63151) -0.031

Fetched one by one from above (2):
log2 fold change, inactive:
PPP1R8 (UniProt Q12972) -0.033
PRPH isoform 2 (UniProt P41219) 0.098
